# Assay results reported in PubChem BioAssay AID1487 (National Center for Advancing Translational Sciences (NCATS), 2009).
# “And” between values parts separate entries of the source, which are not always exact repeats. Equal values may be shown once. This is one part of the list. Further columns of the screen follow, without active or inactive calls. Most of these compounds were active or inconclusive in the main read-out, so they are no random draw. Words in brackets tell the shape of the fitted curve; partial curves, single points and poor fits give uncertain potencies.
# Test: qHTS Assay for Modulators of Lamin A Splicing
# Conditions: HeLa LMNA splicing GFP/RFP minigene ratio, 48 h
# Outline: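 S3 HeLa stable clones carrying a lamin A-EGFP splicing minigene plus DsRed2 were seeded at 600 cells/well in Opti-MEM with 2% FBS, pin-dosed and incubated 48 h at 37°C. Acumen cytometry (488 nm) gave the GFP/RFP total-intensity ratio.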
# [1] = measured here: GFP splicing reporter channel
# [2] = measured here: RFP viability control channel
SMILES,AC50 [1],AC50 [2]
O=C(c1cccc(S(=O)(=O)N2CCc3ccccc3C2)c1)N1CCN(c2ccc(O)cc2)CC1,"0.891 µM [rising, partial curve]",
Cc1ccc(S(=O)(=O)N/N=C\c2ccc(Cl)c([N+](=O)[O-])c2)cc1,,"10 µM [rising, partial curve]"
O=c1c2c3c(sc2n(CCN2CCOCC2)c(=O)n1Cc1ccco1)CCCCC3,"0.112 µM [rising, full curve]",
O=C(NCC1CCCCN1)c1cc(OCC(F)(F)F)ccc1OCC(F)(F)F (stereo not drawn),"0.0112 µM [falling, full curve, poor fit]","1.26 µM [rising, partial curve, poor fit] and 12.6 µM [rising, single point]"
O=c1cc(CO)[nH]cc1OCc1ccccc1,"0.316 µM [rising, full curve, poor fit]",
O=C(NCCc1ccc(Cl)cc1)c1ccc(CSCc2ccc(Cl)cc2)o1,,"35.5 µM [rising, single point]"
CCN(CC)S(=O)(=O)c1ccc(Oc2cccc(C(C)=O)c2)nc1,"5.62 µM [rising, partial curve, poor fit]",
COc1ccc(N2CCN(C(=O)Nc3ccccc3Cl)CC2)cc1,,"0.0224 µM [falling, full curve, poor fit]"
CCCC(=O)n1nc(-c2cccnc2)nc1NCc1ccccc1,,"0.0112 µM [falling, full curve, poor fit]"
CN(C)C(=S)Nc1nc2ccccc2s1,"22.4 µM [falling, partial curve]","0.126 µM [falling, full curve]"
COCCNC(=O)NC(=O)CSc1nc(C)c(C)c(C)n1,"35.5 µM [falling, single point]",
Cc1nn(Cc2ccccc2)c(Cl)c1C(=O)NCCc1ccc(Cl)cc1,"31.6 µM [rising, single point]","35.5 µM [rising, single point]"
O=C(NCc1cccnc1)c1c[nH]c2cc3c(cc2c1=O)OCCO3,"1.12 µM [rising, full curve]","3.16 µM [rising, full curve]"
C=CCNc1nc2c(c(=O)n(C)c(=O)n2C)n1CCCCCC,"2.24 µM [rising, partial curve, poor fit]","3.16 µM [rising, full curve]"
CCOC(=O)c1c(C)n(CCO)c2ccc(O)cc12,,"5.62 µM [rising, single point]"
COCCNC(=O)/C(C#N)=C/c1ccc(C(=O)O)cc1,,"0.00447 µM [falling, full curve, poor fit]"
COc1ccc(-n2c(O)c(/C=N/NS(=O)(=O)c3ccc(C)cc3)c3ccccc3c2=O)cc1OC,,"8.91 µM [rising, partial curve]"
CCOC(=O)c1c(NC(=O)COc2cccc3c2CCN(C)C3=O)sc2c1CCC2,"8.91 µM [rising, partial curve, poor fit]","12.6 µM [rising, partial curve]"

# By substructure, the compounds so far containing a Cl atom
SMILES,AC50 [1],AC50 [2]
Cc1ccc(S(=O)(=O)N/N=C\c2ccc(Cl)c([N+](=O)[O-])c2)cc1,,"10 µM [rising, partial curve]"
O=C(NCCc1ccc(Cl)cc1)c1ccc(CSCc2ccc(Cl)cc2)o1,,"35.5 µM [rising, single point]"
COc1ccc(N2CCN(C(=O)Nc3ccccc3Cl)CC2)cc1,,"0.0224 µM [falling, full curve, poor fit]"
Cc1nn(Cc2ccccc2)c(Cl)c1C(=O)NCCc1ccc(Cl)cc1,"31.6 µM [rising, single point]","35.5 µM [rising, single point]"

# Additional records follow:

SMILES,AC50 [1],AC50 [2]
CCOc1ccccc1Nc1nnc(SCC(=O)Nc2cccc(S(=O)(=O)NC3=NCCCCC3)c2)s1,"2.51 µM [rising, full curve]","11.2 µM [rising, partial curve]"
COc1nccnc1NS(=O)(=O)c1ccc(NC(=S)NC(=O)c2ccc(F)c(F)c2)cc1,"3.98 µM [falling, partial curve]",
CC(C)(C)c1ccc(Cn2cnc(-c3ccc([N+](=O)[O-])cc3)c2)cc1,,"35.5 µM [rising, single point]"
Cn1c(CSCc2ccc(Cl)c(Cl)c2)n[nH]c1=S,"0.708 µM [rising, full curve, poor fit]",
O=C1N/C(=N\N=C\c2cccs2)SC1Cc1ccc(Cl)cc1Cl (stereo not drawn),,"5.01 µM [rising, full curve]"
CCC(=O)Nc1ccc2oc(-c3ccccc3Br)nc2c1,,"0.0708 µM [falling, full curve, poor fit]"
O=C(NCc1cccc(C(F)(F)F)c1)c1cc(Cl)ccc1Cl,,"35.5 µM [rising, single point]"
Cc1ccc(-c2nnc(CSc3nc4cc5c(cc4cc3C)OCO5)o2)cc1,"11.2 µM [rising, partial curve]","12.6 µM [rising, partial curve]"
O=C(Nc1nc2ccc(S(=O)(=O)N3CCCC3)cc2s1)c1cccs1,,"11.2 µM [rising, partial curve, poor fit]"
CCCCOc1ccc(OCCCN2CCOCC2)cc1,"5.62 nM [rising, full curve, poor fit] and 28.2 µM [falling, single point]","0.355 µM [falling, partial curve, poor fit]"
CCSc1ccc(-c2ccc(C)cc2)nn1,,"14.1 µM [falling, partial curve, poor fit]"
COc1ccc(C2=NN(CC(=O)NCCc3ccccc3)C(=O)CC2)cc1,"0.00355 µM [falling, full curve, poor fit]","0.1 µM [falling, full curve, poor fit]"
O=C(NCc1cccnc1)c1c(O)c2cccc3c2n(c1=O)CCC3,,"0.126 µM [falling, full curve, poor fit]"
CCC(=O)c1cc2c(C)cc(=O)oc2c(C)c1OC(C)=O,"12.6 µM [rising, single point]","15.8 µM [rising, single point]"
COc1cc(NC(=O)c2ccco2)c(C(=O)OCC(=O)c2c[nH]c3ccccc23)cc1OC,,"35.5 µM [rising, single point]"
N#CC1=C(N)Oc2c(ccc3ccccc23)C1c1cccs1 (stereo not drawn),,"0.501 µM [rising, full curve]"
CCOc1ccc2nc(SCC(=O)c3cccs3)sc2c1,,"6.31 µM [rising, single point]"
COc1cc2ccc(=O)oc2c(O)c1OCC=C(C)C,"35.5 µM [falling, single point]","0.158 µM [rising, full curve]"
